Data source: PubChem BioAssay AID1259254 (NCATS, 2017)

- Aim: 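Gene knock-downs that lead to re-replication, shown by excess G2 DNA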 (primary screen)
- System: human HCT116 colorectal cancer cells
- Reagents: single siRNA against human genes
- Timing: 3 days
- Read-out: 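Nuclei stained with Hoechst and imaged; cell-cycle phase assigned by DNA content; G2 share scaled per plate, non-targeting siRNA 0%, GMNN siRNA 100%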
- Scale: G2 robust z-score: higher = more G2 cells, more excess DNA replication
- Hit rule: 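An siRNA counts as active if its G2 robust z-score lies at least 5 MADs above the screen median; here such calls match roughly 38% of GMNN control or more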
Shown is one part, drawn at random, of about 59,000 reagents tested. Of all reagents, about 1,550 (2.6%) were called active. 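G2 share is only a proxy for re-replication; each gene was hit by three separate siRNAs, and active genes were retested.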 Reagents against one gene are numbered here. Not all columns of the deposit are shown. The record does not give: the amount of reagent.

After knock-down of XPNPEP1 #1, the screen gave G2 robust z-score 3.23; inactive. For XPNPEP1 #2, the values are G2 robust z-score 1.31; inactive. Knock-down of XPNPEP1 #3 resulted in: G2 robust z-score 0.207; inactive. Against C8orf58 #1, the entry reads G2 robust z-score 1.24; inactive. After knock-down of C8orf58 #2, the record shows G2 robust z-score -1.13; inactive. After knock-down of C8orf58 #3, the screen gave G2 robust z-score 0.387; inactive.

ADTRP #1 scored G2 robust z-score 4.79; inactive. Against ADTRP #2, the values are G2 robust z-score -0.875; inactive. Silencing of ADTRP #3 came out at: G2 robust z-score -0.124; inactive. SEPTIN12 #1 scored G2 robust z-score -0.778; inactive. Knock-down of SEPTIN12 #2 resulted in: G2 robust z-score 0.969; inactive. Knock-down of SEPTIN12 #3 came out at: G2 robust z-score 2.23; inactive.

2 successive records from above, for reference:
ADTRP #1 | G2 robust z-score = 4.79; Call = inactive
ADTRP #2 | G2 robust z-score = -0.875; Call = inactive

Further entries follow.
TMEM204 #1 showed G2 robust z-score -0.594; inactive. Against TMEM204 #2 the deposit lists G2 robust z-score 0.0847; inactive. With knock-down of TMEM204 #3 the results were G2 robust z-score -0.366; inactive. After knock-down of HK2 #1, the screen gave G2 robust z-score -0.296; inactive. Silencing of HK2 #2 came out at: G2 robust z-score -0.515; inactive. Against HK2 #3, the values are G2 robust z-score -0.389; inactive.
